Publication PMC9581967, “Helical ultrastructure of the metalloprotease meprin α in complex with a small molecule inhibitor” (Nature Communications, 2022)
No constants are given. Whether binding was seen depends on the method and setting. Some entries that bind do so weakly or less than the wild type.

Target: native meprin α from mouse urine (mouse (endogenous in urine)) (UniProt P28825)
Assay: SEC; analytical size-exclusion chromatography of mouse urine after cisplatin treatment

binding: binds
B1: native meprin α from mouse urine (enzyme, UniProt P28825 65-713)
chain: NAMRDPSSRWKLPIPYILADNLELNAKGAILHAFEMFRLKSCVDFKPYEGESSYIIFQKLSGCWSMIGDQQVGQNISIGEGCDFKATIEHEILHALGFFHEQSRTDRDDYVNIWWDQIITDYEHNFNTYDDNTITDLNTPYDYESLMHYGPFSFNKNESIPTITTKIPEFNTIIGQLPDFSAIDLIRLNRMYNCTATHTLLDHCDFEKTNVCGMIQGTRDDADWAHGDSSQPEQVDHTLVGQCKGAGYFMFFNTSLGARGEAALLESRILYPKRKQQCLQFFYKMTGSPADRFEVWVRRDDNAGKVRQLAKIQTFQGDSDHNWKIAHVTLNEEKKFRYVFLGTKGDPGNSSGGIYLDDITLTETPCPAGVWTIRNISQILENTVKGDKLVSPRFYNSEGYGVGVTLYPNGRITSNSGFLGLTFHLYSGDNDAILEWPVENRQAIMTILDQEADTRNRMSLTLMFTTSKNQTSSAINGSVIWDRPSKVGVYDKDCDCFRSLDWGWGQAISHQLLKRRNFLKGDSLIIFVDFKDLTHLNRTEVPASARSTMPRGLLLQGQESPALGESSRKAMLEESLPSSLGQRHPSRQKRSVENTGPMEDHNWPQYFRDPCDPNPCQNEGTCVNVKGMASCRCVSGHAFFYAGERCQAM
